Results are given in words; binding and its absence hold for the method and conditions named. In cells and extracts the contact can be indirect. Some binding calls cover weakened binding; strength is not graded here. Where a sequence is shown, tags or fusion partners need not be part of it.
target: T1, Flag-USP50 (ubiquitin-specific peptidase 50) (UniProt Q70EL3); test: co-IP; HEK293 cells co-transfected with an HA-tagged inflammasome component and Flag-USP50; lysates immunoprecipitated with Flag antibody and immunoblotted
T1 sequence: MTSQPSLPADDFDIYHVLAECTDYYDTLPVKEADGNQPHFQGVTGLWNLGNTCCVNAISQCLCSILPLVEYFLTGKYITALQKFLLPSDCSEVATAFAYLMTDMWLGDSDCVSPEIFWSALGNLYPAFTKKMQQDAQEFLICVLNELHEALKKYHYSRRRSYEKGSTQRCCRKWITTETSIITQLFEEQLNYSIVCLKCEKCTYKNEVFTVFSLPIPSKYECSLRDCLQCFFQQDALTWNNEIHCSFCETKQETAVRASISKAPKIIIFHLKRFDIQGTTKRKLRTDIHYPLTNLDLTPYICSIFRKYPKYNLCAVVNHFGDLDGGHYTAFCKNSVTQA

Protein sequences, listed by entry. Tags and fused reporters are not part of them.
UniProt Q96P20: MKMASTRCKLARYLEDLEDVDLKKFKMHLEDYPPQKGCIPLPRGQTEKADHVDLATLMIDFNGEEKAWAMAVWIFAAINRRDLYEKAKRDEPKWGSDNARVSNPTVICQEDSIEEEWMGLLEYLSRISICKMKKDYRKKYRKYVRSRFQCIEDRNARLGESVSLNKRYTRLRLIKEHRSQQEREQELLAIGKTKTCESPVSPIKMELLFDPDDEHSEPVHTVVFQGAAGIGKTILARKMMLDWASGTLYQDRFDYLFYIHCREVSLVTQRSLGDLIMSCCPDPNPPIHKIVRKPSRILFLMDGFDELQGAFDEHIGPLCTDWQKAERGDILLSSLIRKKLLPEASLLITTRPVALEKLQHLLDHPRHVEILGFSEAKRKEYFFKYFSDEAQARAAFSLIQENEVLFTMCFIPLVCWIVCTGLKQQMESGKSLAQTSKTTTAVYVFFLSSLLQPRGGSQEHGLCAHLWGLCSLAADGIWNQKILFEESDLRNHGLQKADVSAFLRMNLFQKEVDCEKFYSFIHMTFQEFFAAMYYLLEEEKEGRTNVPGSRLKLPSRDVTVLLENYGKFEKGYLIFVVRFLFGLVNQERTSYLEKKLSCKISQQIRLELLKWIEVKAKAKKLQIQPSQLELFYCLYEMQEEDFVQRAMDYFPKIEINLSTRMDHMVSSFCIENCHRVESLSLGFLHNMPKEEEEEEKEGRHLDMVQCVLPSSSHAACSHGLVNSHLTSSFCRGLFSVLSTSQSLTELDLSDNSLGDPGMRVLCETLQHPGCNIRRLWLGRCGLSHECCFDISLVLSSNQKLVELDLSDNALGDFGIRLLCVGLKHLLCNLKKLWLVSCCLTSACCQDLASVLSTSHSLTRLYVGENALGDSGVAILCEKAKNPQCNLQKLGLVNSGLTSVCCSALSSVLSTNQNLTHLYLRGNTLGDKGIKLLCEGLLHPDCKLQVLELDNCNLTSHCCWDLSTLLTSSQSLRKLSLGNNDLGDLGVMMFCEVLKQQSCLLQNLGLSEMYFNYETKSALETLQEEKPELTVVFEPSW
UniProt P29466: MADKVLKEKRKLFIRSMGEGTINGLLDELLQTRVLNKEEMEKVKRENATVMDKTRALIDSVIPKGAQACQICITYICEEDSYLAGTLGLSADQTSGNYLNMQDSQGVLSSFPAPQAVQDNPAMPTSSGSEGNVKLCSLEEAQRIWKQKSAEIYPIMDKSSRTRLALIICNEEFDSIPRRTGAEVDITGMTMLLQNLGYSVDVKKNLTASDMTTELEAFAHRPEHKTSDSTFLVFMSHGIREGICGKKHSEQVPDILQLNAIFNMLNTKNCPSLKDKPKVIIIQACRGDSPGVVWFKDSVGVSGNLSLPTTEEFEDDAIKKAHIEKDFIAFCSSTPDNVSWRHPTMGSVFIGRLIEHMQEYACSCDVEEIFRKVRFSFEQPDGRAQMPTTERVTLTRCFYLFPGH
UniProt Q9ULZ3: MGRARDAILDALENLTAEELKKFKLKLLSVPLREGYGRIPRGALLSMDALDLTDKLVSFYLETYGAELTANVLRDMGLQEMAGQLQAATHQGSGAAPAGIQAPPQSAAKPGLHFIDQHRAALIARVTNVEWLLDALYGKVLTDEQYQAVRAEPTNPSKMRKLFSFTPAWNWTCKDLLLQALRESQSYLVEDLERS

binding	Substance
binds weakly	HA-NLRP3 (NOD-like receptor family protein 3) (from UniProt Q96P20 1-1036)
no binding	HA-procaspase-1 (from UniProt P29466 1-404)
binds	HA-ASC (apoptosis-associated speck-like protein containing a caspase activation and recruitment domain) (from UniProt Q9ULZ3 1-195)

From paper PMC5324553
